Results taken from US10376540B2, “Tungsten (VI) salts used to treat infertility, for stimulating fertility and normal reproduction in a non-diabetic female mammal, and for improving the effectiveness of assisted reproduction techniques” (OXOLIFE, S.L., priority 2014, dated 2019).

Experiment: Body weight study
Format: in vivo, mice
Conditions: for Body weight, Average: average of 6 mice; for Body weight: individual mice, dihydrate

Structure (SMILES): O.O.[Na+].[Na+].[O]=[W](=[O])([O-])[O-] [sodium tungstate, sodium tungstate dihydrate]
- Body weight, Average (Day 2): 17.33 g
- Body weight (Day 2, 2 mg/ml in drinking water): 22.9 g and 14.84 g and 18.98 g and 17.01 g and 14.18 g and 16.04 g
- Body weight, Average (Day 5): 16.97 g
- Body weight (Day 5): 22.61 g and 14.89 g and 18.2 g and 16.61 g and 13.79 g and 15.72 g
- Body weight, Average (Day 7): 16.84 g
- Body weight (Day 7): 22.42 g and 15.07 g and 17.81 g and 16.35 g and 13.74 g and 15.66 g
- Body weight, Average (Day 9): 17.35 g
- Body weight (Day 9): 22.85 g and 15.56 g and 17.9 g and 16.89 g and 14.5 g and 16.39 g
- Body weight, Average (Day 12): 17.72 g
- Body weight (Day 12): 23.15 g and 15.91 g and 18.24 g and 17.19 g and 14.92 g and 16.89 g

“And” between values parts separate entries of the source, which are not always exact repeats. Identical values can stand only once.
